Source: PubChem BioAssay AID602296 (Broad Institute, 2012)
Out of some 2,000 compounds screened, about 190 (9.5%) were called active. Roughly 14% stayed inconclusive and do not appear here.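 Rule for the calls: active = fitted activation curve crossing 40% at a concentration no higher than the sample's top valid tested dose; inconclusive = flat fitted curve at 30% to 70% activation, or poor curve fit; inactive = signal decrease, flat curve within 30%, or the rest.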 The list lacks most of the strong results.

test: sustained heat shock response element induction – cell-based, mouse, luciferase, cherry-pick, dose, confirmation (AID 602296); conditions: NIH3T3-HGL HSF-1 response element luciferase, 48 h; at 26 µM (top of the series) unless noted;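 note: test compounds applied by themselves with no MG132 co-treatment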

| SMILES | activation |
| --- | --- |
| CC12CCC(=O)N1C(C(=O)Nc1cccc3ccccc13)CS2 (stereo not drawn) | inactive: -1.65% |
| CC[C@H](C)/C=C(C)/C=C/C(=O)Cc1cc(O)c(C)c(O)c1C=O | inactive: -0.093% |
| NC(=O)CC(NC(=O)c1ccc(Br)cc1)c1ccc(N2CCCCCC2)c([N+](=O)[O-])c1 (stereo not drawn) | inactive: -21.6% |
| COc1cc(NC(=O)COC(=O)c2ccc(C)c(S(=O)(=O)N3CCCCC3)c2)c(C)cc1[N+](=O)[O-] | inactive: -7.45% |
| O=C(CS(=O)c1ccc(C(F)(F)F)cc1[N+](=O)[O-])Oc1ccccc1 (stereo not drawn) | inactive: -94.7% |
| C=C(C)CN(CC)c1nc(N)c2c(N)nc3c(c2c1C#N)CC(=O)N3C12CC3CC(CC(C3)C1)C2 | inactive: -56.4% |
| COc1ccc(N/C=C2\C(=O)CCc3c2oc2cc(Cl)c(O)c(Cl)c32)cc1 | inactive: -8.08% |
| O=C(CN1c2ccccc2Sc2ccccc21)N/N=C/c1ccc(Cl)cc1 | inactive: -55.8% |
| COc1ccc(C(C(=O)NCC2CCCO2)N(C(=O)Cn2nnc3ccccc32)c2ccc(NC(C)=O)cc2)cc1OC (stereo not drawn) | inactive: 5.69% |
| CCCCn1c(NC(=O)c2ccco2)c(S(=O)(=O)c2ccc(C)cc2)c2nc3ccccc3nc21 | inactive: -17.4% |
| COc1ccc(CN(CC2CCC(C(=O)O)CC2)C(=S)Nc2cc(Cl)ccc2OC)cc1 (stereo not drawn) | inactive: -20.2% |
| Cc1c(C(=O)NCCN(C)C)oc2ccc(S(=O)(=O)N3CCCC3)cc12 | inactive: -11.1% |
| COc1ccc(CNCC(O)COc2ccc(C(C)(C)c3ccccc3)cc2)cc1 (stereo not drawn) | inactive: -44.6% |
| COc1ccc(S(=O)(=O)Nc2ccncc2)c(C)c1C | inactive: 6.75% |
| O=C(CNS(=O)(=O)c1ccc(Br)s1)NCc1ccccc1 | inactive: 0.286% |
| Cc1cc2c(cc1C)C(c1cccc([N+](=O)[O-])c1)CC(=O)N2 (stereo not drawn) | inactive: 2.19% |
| O=C(O)CN1C(=O)/C(=C/c2ccccc2Br)Oc2ccccc21 | inactive: 3.86% |
| CCCC(=O)O/N=C(\c1ccccc1)c1ccncc1 | inactive: -17.2% |
| CCn1c(SCCOc2ccc(Cl)cc2)nnc1-c1cccs1 | inactive: -36.1% |
| Cc1cc(NCCN2CCOCC2)n2nc(C)c(-c3ccc(Cl)cc3)c2n1 | inactive: -28% |
| COc1ccc(CNS(=O)(=O)c2cc(CN3C(=O)c4cccnc4C3=O)ccc2OC)cc1 | inactive: 5.12% |
| CC(=O)N1CSCC1C(=O)NNS(=O)(=O)c1cccc(C(F)(F)F)c1 (stereo not drawn) | inactive: 5.92% |

| SMILES | activation |
| --- | --- |
| O=C(Nc1ccc(C(=O)N2CCOCC2)cc1)c1cnn2c(C(F)F)cc(-c3ccccc3)nc12 | inactive: 1.93% |
| COCCCN1C(=O)c2[nH]nc(-c3ccccc3O)c2C1c1cccc(Cl)c1 (stereo not drawn) | inactive: -20.5% |
| CCOc1cc([N+](=O)[O-])cc(/C=C2/NC(=O)N(Cc3ccccc3F)C2=O)c1O | inactive: -24.8% |
| CC1(c2ccccc2)CC2CC(c3ccccc3)N1O2 (stereo not drawn) | inactive: 4.93% |
| Cc1ccc2nc(SCC(=O)Nc3cccc(S(=O)(=O)NC4=NCCCCC4)c3)[nH]c2c1 | inactive: -16.7% |
| Cc1cc(Sc2ncnc(N)c2[N+](=O)[O-])ncn1 | inactive: -99% |
| COc1cc(/C=N/Nc2snc(SC)c2C#N)ccc1O | inactive: -4.99% |
| CCCCn1c(N)c(N(CC(C)C)C(=O)C2CCN(S(=O)(=O)c3ccc(C)c(C)c3)CC2)c(=O)[nH]c1=O | inactive: -3.45% |
| COc1ccc(C(=O)Nc2cc(C(F)(F)F)ccc2-n2cnc3ccccc32)cc1 | inactive: -9.25% |
| CCc1cccc(CC)c1NC(=O)COC(=O)CC1c2ccccc2CCN1S(=O)(=O)c1ccc(F)cc1 (stereo not drawn) | inactive: -24.4% |
| O=C1C(=O)N(Cc2cccnc2)C(c2cccc(O)c2)/C1=C(\O)c1ccc2c(c1)OCCO2 (stereo not drawn) | inactive: 0.865% |
| Cc1cccc(C2c3[nH]c4ccccc4c3CCN2Cc2cnn(-c3ccc(F)cc3)c2)n1 (stereo not drawn) | inactive: -2.28% |
| COc1ccccc1NS(=O)(=O)c1cc(C(=O)N2CC(C)CC(C)C2)ccc1C (stereo not drawn) | inactive: -17.2% |
| Nc1nc(Br)c2c(F)cccc2c1-c1ccc(Cl)cc1 | inactive: -7.38% |
| CC(NC(=O)/C=C/c1ccco1)c1nc2ccccc2n1Cc1cccc(Cl)c1 (stereo not drawn) | inactive: -32.1% |
| Cc1cc(C)c2cc(CN(Cc3ccco3)C(=S)NCC3CCCO3)c(=O)[nH]c2c1 (stereo not drawn) | inactive: -3.55% |
| CSc1nc(NC(C)(C)C)nc(Oc2ccc(=O)[nH]n2)n1 | inactive: 12.6% |
| CCCN(CCC)C(=S)NC1CC2C=CC1C2 (stereo not drawn) | inactive: -20.6% |
| CN(C)c1nc(NC(C)(C)C)nc(SCC(=O)Nc2ccccc2)n1 | inactive: -14.3% |
| O=C(Nc1cccc(Cl)c1)N1CCC(CO)(CCOc2ccccc2)CC1 | inactive: 6.61% |
| O=c1c2ccccc2nc(SCc2nnc(-c3ccccc3Br)o2)n1Cc1ccco1 | inactive: 8.55% |
| CCc1nc(N2CCN(S(=O)(=O)c3ccc(Br)cc3)CC2)c2c(C)c(C)sc2n1 | inactive: -13.7% [at 12 µM] |

An excerpt of these results, bar-delimited.
SMILES | activation
Cc1cc(Sc2ncnc(N)c2[N+](=O)[O-])ncn1 | inactive: -99%
Nc1nc(Br)c2c(F)cccc2c1-c1ccc(Cl)cc1 | inactive: -7.38%
Cc1cc(C)c2cc(CN(Cc3ccco3)C(=S)NCC3CCCO3)c(=O)[nH]c2c1 (stereo not drawn) | inactive: -3.55%

(more compounds)

| SMILES | activation |
| --- | --- |
| c1ccc(-c2nc(CSc3n[nH]c(-c4cccs4)n3)cs2)cc1 | inactive: 0.044% |
| O=c1c(Cl)cc(Cl)nn1-c1ccccc1 | inactive: -99.9% |
| COc1ccc(Cl)cc1NC(=O)CCc1nc(-c2ccccc2F)no1 | inactive: -32.6% |
| Fc1ccc(NC(=S)Nc2cc(Cl)ccc2Cl)cc1 | inactive: -2.92% |
| O=C(COC(=O)c1ccccc1C(=O)c1ccccc1)NCCc1ccccc1 | inactive: -4.6% |
| O=C(CSc1nn(-c2ccc(F)cc2)c(=S)s1)N1CCN(C(=O)c2ccco2)CC1 | inactive: 21.5% |
| O=C(c1ccccn1)N(Cc1ccco1)C1(C(=O)NC2CCCC2)CCCCC1 | inactive: -7.35% |
| CCOC(=O)N1CCN(C(=O)c2cnc3n(c2=O)CCS3)CC1 | inactive: -14.1% |
| Cc1c(C#N)c(O)n(CCO)c(=O)c1N=Nc1ccc2c(c1)COC2=O | inactive: -71.9% |
| Fc1ccc(-c2nnc3ccc(N4CCc5ccccc5C4)nn23)cc1 | inactive: -21.3% |
| N#Cc1cc(Cl)c(NCC2CCCO2)cc1C#N (stereo not drawn) | inactive: -8.57% |
| Cc1ccc(OC(=O)c2ccc(C)c(C)c2)cn1 | inactive: 0.572% |
| c1ccc(Cn2nnnc2C(c2cccs2)N2CCc3ccccc3C2)cc1 (stereo not drawn) | inactive: -61.7% |
| CSc1sc(C(=O)OC(C)C)c2c1C(=O)CC(C)(C)C2 | inactive: 9.1% |
| CC1CC2(CCCCC2)Nc2ccc3ccccc3c21 (stereo not drawn) | inactive: -10.7% |
| C=CCNCCOCCSc1ccc(Cl)cc1 | inactive: 2.19% |
| COc1ccc(Cl)cc1N(CC(=O)Nc1ccccc1SC)S(C)(=O)=O | inactive: 5.09% |
| Cc1ccc(F)cc1NC(=O)N1CCCN(c2ccc(C(F)(F)F)cn2)CC1 | inactive: -5.59% |
| CCCCNC(=S)NNC(=O)c1csc2ccccc12 | inactive: 13.2% |
| CC(C)(Oc1ccc(Cl)cc1)C(=O)Nc1ccc2oc(-c3ccncc3)nc2c1 | inactive: 12.7% |
| O=c1[nH][nH]c2cc(=O)n(-c3cccc(C(F)(F)F)c3)nc12 | inactive: -5.51% |
| CC1=CC2=C(OC1N(C)C)c1cccc3cccc(c13)C2=O (stereo not drawn) | inactive: -31.4% |

| SMILES | activation |
| --- | --- |
| COc1cc(/C=C/C(=O)c2c(O)ccc3c(C)cc(=O)oc23)ccc1O | inactive: -4.95% |
| FC(F)(F)c1nnc(-c2ccccc2)nc1Sc1ccccc1 | inactive: -96.8% |
| CCOc1ccc2nc(SCc3ccc(C(=O)OC)o3)[nH]c2c1 | inactive: -12.3% |
| Cc1ccccc1-n1c(-c2ccc(Cl)cc2)cnc1SCC(=O)NC1CCS(=O)(=O)C1 (stereo not drawn) | inactive: -15.9% |
| Clc1ccc(-n2cc(COCc3ccccc3)nn2)cc1 | inactive: -82.4% |
| CSCCC(NS(=O)(=O)c1cccc(C(F)(F)F)c1)C(=O)N(C)CCOc1ccc(Cl)cc1 (stereo not drawn) | inactive: -74.1% |
| CCOC(=O)N1CCN(C(=O)CS(=O)(=O)c2cn(Cc3ccc(F)cc3)c3ccccc23)CC1 | inactive: -26.3% |
| CNc1c(NS(=O)(=O)c2ccc(F)c(Cl)c2)c(=O)oc2ccccc12 | inactive: -16.6% |
| Cc1nc(N2CCC(C)CC2)c2c(C)c(C(=O)Nc3cccc(C(F)(F)F)c3)sc2n1 | inactive: -24.8% |
| O=S(=O)(c1cc(Cl)ccc1Cl)N1CC2CCCN2c2ccc(C(F)(F)F)cc21 (stereo not drawn) | inactive: -10.1% |
| Brc1ccccc1-n1nnc(-c2cnc3ccccc3c2)n1 | inactive: -85.8% |
| CC(C(=O)Nc1ccccc1Br)N1c2cccc3cccc(c23)S1(=O)=O (stereo not drawn) | inactive: -32.6% |
| COCCNC(=O)Cn1cnc2c1c(=O)n(C)c(=O)n2C | inactive: -7.4% |
| CS(=O)(=O)Nc1cccc(C2=NN(C(=O)CCCC(=O)O)C(c3cccs3)C2)c1 (stereo not drawn) | inactive: -4.69% |
| CCN(CC)S(=O)(=O)c1cc([N+](=O)[O-])ccc1NNC(=O)Nc1ccccc1OC | inactive: -37% |
| COc1ccc(OC)c(N(CC(=O)N2CCC(C)CC2)S(=O)(=O)c2ccccc2)c1 | inactive: -8.62% |
| Cc1onc(-c2ccccc2)c1C(=O)N/N=C/c1cccc(O)c1 | inactive: -6.78% |
| Cc1ccc(S(=O)(=O)N2CCN(C(=O)CSc3ccc(Cl)cc3)CC2)cc1 | inactive: -14.2% |
| COc1cccc(NC(=O)CSc2nc3c([nH]c4ccccc43)c(=O)n2C)c1 | inactive: -40.4% |
| CN(C)CCCCNCCCNC(=O)/C=N\O | inactive: 12.4% |
| COc1ccc(CNC(=O)C(c2ccc(C)o2)N(C(=O)c2csnn2)c2ccc(C(C)C)cc2)cc1 (stereo not drawn) | inactive: -4.22% |
| CC(=O)Nc1ccc(S(=O)(=O)NC2=C(N3CCN(c4ccc(F)cc4)CC3)C(=O)c3ccccc3C2=O)cc1 | inactive: -18.4% |
